We go through two sequences from article PMC5389854.

The chains behind the UniProt entries cited, without tags or fusion partners.
UniProt K7K6B8, entry or part of it: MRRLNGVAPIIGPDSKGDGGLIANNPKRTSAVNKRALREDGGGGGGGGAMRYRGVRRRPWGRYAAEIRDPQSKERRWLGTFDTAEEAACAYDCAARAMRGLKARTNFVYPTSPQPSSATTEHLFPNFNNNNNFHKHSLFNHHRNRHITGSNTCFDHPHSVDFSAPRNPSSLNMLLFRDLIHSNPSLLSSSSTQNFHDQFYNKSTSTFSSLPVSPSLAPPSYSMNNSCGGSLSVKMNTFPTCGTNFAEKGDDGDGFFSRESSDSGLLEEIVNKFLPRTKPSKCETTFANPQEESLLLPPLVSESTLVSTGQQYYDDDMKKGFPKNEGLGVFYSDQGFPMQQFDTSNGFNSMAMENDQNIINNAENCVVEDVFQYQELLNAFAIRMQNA

Construct, isoform or probe ends are uncertain for at least one entry.

Data set [1] addresses GmESR1 (Glycine max cv. Dongnong 50) (UniProt K7K6B8). Briefly: EMSA. As to conditions: EMSA as in Kass et al. (2000); pH and temperature not stated; recombinant protein; protein details: His (pET-29b); label: digoxigenin-ddUTP. For orientation: In EMSA bound probe runs differently from free probe, usually more slowly.
Data set [2] shares this target. Briefly: competition with a labelled probe. As to conditions: 100-fold unlabeled versus labeled GCC-box probe, labeled probe not bound; EMSA as in Kass et al. (2000); pH and temperature not stated; recombinant protein; protein details: His (pET-29b).

Turning to “ATCCATAAGAGCCGCCACTAAAATAAGACCGATCAA / TTGATGGTCTTATTTTAGTGGCGGCTCTTATGGAT [GCC-box probe]”, in data set [1], the binding result is “binds”.

For “ATCCATAAGAGCCGCCACTAAAATAAGACCGATCAA / TTGATGGTCTTATTTTAGTGGCGGCTCTTATGGAT [unlabeled GCC-box competitor]”, in data set [2], the binding result is on record as “binds”.
